Source: PubChem BioAssay AID662 (National Center for Advancing Translational Sciences (NCATS), 2007)
Values joined by “and” are separate entries in the source; they are usually repeats but may differ in a detail not shown here. Identical values can stand only once. The list shows a part of the results. Shown are side measurements of this screen, not its main read-out; they come without a call. Compounds called inactive in the main read-out are mostly missing here. The note in brackets gives the kind of curve behind each potency; many fits are weak.

Assay: Cell signaling CRE-BLA (Fsk stim)
Conditions: CHO CRE-bla reporter (cAMP response element driving beta-lactamase), forskolin EC10, beta-lactamase ratio; measured here: 460 nm blue channel
Outline: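 CRE-bla CHO cells stimulated with EC10 NKH 477 (water-soluble forskolin) and compound titrations, 3 h at 37C; beta-lactamase read with CCF4 after 2 h at room temperature. Activity from 460/530 nm emission ratio, AC50 values for positive or negative modulation.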

Structure (SMILES) | AC50
CN1[C@H](CC(=O)c2ccccc2)CCC[C@H]1C[C@@H](O)c1ccccc1 | 31.6 µM [falling, single point]
COc1ccccc1CNc1ncnc2ccc(-c3ccccc3OC)cc12 | 20 µM [falling, single point]
c1ccc(-n2nnc3c(N4CCOCC4)ncnc32)cc1 | 10 µM [rising, single point]
O=C1c2ccccc2C(=O)N1CCc1nc2ccccc2c(=O)n1CCCn1ccnc1 | 12.6 µM [rising, partial curve]
CC(C)(C)c1cc(C(=O)O)nn1-c1ccccc1 | 25.1 µM [falling, single point]
Cc1nnc(SCC(=O)Nc2ccc3c(c2)OCCO3)n1CC1CCCO1 (centres undefined) | 15.8 µM [falling, single point]
CC1CN(c2ncnc3c2oc2ccccc23)CC(C)O1 (centres undefined) | 7.94 µM [rising, partial curve]
COc1cc(C(=O)N(Cc2cc3cc(C)ccc3[nH]c2=O)CC2CCCO2)cc(OC)c1OC (centres undefined) | 0.794 µM [falling, partial curve]
CC1=CS/C(=C(/C#N)C(=O)N2CCOCC2)N1c1ccccc1 | 10 µM [rising, partial curve]
Cn1c(=O)cc(SCC(=O)N2CCCC2)c2cc(Cl)ccc21 | 10 µM [falling, partial curve, poor fit]
COc1cc(C(=O)N2CCN(c3cc(Cl)ccc3Cl)CC2)cc(OC)c1OC | 2.51 µM [rising, full curve]
CSc1nc(N2CCN(CCO)CC2)c2sc3nc(-c4ccco4)c4c(c3c2n1)CCC4 | 2 µM [rising, full curve]
COc1ccc(OC)c(NC(=O)CN2C(=O)C3(OCCCO3)c3ccccc32)c1 | 1.26 µM [falling, full curve, poor fit]
CC(C)CC1N=C2c3ccccc3N=C(SCc3cc(=O)n4ccccc4n3)N2C1=O (centres undefined) | 0.794 µM [rising, full curve]
CCn1c2ccccc2c2nc3cc(OC)c(OC)cc3nc21 | 7.94 µM [rising, partial curve]
CNc1nc(-c2ccc(N(C)C)cc2)nc2ccccc12 | 12.6 µM [rising, partial curve]
CCOC(=O)c1[nH]cnc1C(=O)Nc1ccccn1 | 12.6 µM [rising, partial curve]
Cc1ccc2nc(-c3cccc(S(=O)(=O)N(C)C)c3)cn2c1 | 10 µM [rising, partial curve, poor fit]
CC1(C)CC(=O)C=C(Nc2ccc(S(N)(=O)=O)cc2)C1 | 0.00398 µM [falling, full curve]
COc1ccc(Oc2ncc3nc(C)c(=O)n(Cc4ccc(F)cc4)c3n2)cc1 | 7.94 µM [rising, partial curve]
COc1ccc(CC(C)N2CCN(c3ccccc3OC)CC2)cc1OC (centres undefined) | 5.01 µM [falling, partial curve]
COc1ccc(C(=O)C(CN2CCOCC2)c2ccccc2)cc1F (centres undefined) | 7.94 µM [falling, partial curve]

Structure (SMILES) | AC50
O=C1Nc2ccc(I)cc2/C1=C/c1cc(Br)c(O)c(Br)c1 | 5.01 µM [falling, partial curve, poor fit] and 25.1 µM [falling, partial curve]
CCc1cc2c(CN3CCN(C)CC3)cc(=O)oc2cc1O | 12.6 µM [rising, partial curve]
Cc1nc2ccccc2c2oc(C(=O)NCC3COc4ccccc4O3)cc12 (centres undefined) | 25.1 µM [falling, single point]
CN(C)C(=O)N1CCC(C(=O)NCc2cccs2)CC1 | 25.1 µM [rising, single point]
Cc1nnc(Oc2ccccc2F)c2ccccc12 | 0.0251 µM [falling, full curve, poor fit]
O=C(Nc1cccc(F)c1)c1c(F)c(F)c(F)c(F)c1F | 15.8 µM [falling, partial curve]
CCc1c(C)nc(SC)n(CC#N)c1=O | 10 µM [rising, single point]
CC(=O)N1CCC2(CCCN(C(c3ccccc3)c3ccccc3)C2)CC1 | 12.6 µM [rising, partial curve]
COc1ccc(-c2ccc(-c3noc(-c4ccccc4C)n3)c(OC)n2)cc1 | 12.6 µM [rising, partial curve]
Oc1ccc2ccccc2c1/C=C\c1ccc2c(Br)cc(Br)c(O)c2n1 | 3.98 µM [rising, single point]
CCOC(=O)c1oc2ccc(Br)cc2c1NC(=O)CN1CCN(C)CC1 | 0.631 µM [rising, full curve]
O=C(NCc1ccc2c(c1)OCO2)c1ccc2snnc2c1 | 0.00398 µM [falling, full curve, poor fit]
O=C1c2ccccc2C(=O)N1CCCCSc1nnc(-c2ccc(OC(F)F)cc2)o1 | 3.98 µM [falling, full curve]
Cn1nc(C(=O)NCc2cccnc2)c2ccccc2c1=O | 25.1 µM [rising, single point]
CN(C)c1ccc(/C=c2\sc3n(c2=O)CCCN=3)cc1 | 5.01 µM [rising, partial curve]
COc1ccc(-c2nnn(CC(=O)c3ccc4c(c3)OCCO4)n2)cc1OC | 25.1 µM [rising, single point]
O=c1c(-c2ccc(F)cc2)nc2cnc(N3CCNCC3)nc2n1-c1ccccc1 | 3.16 µM [rising, full curve]
Cc1cccc(CNc2cc(-c3ccc(C(=O)N(C)C)cc3)ncn2)c1 | 3.98 µM [rising, full curve]
COC(=O)CC(=O)CSc1nc(C)cc(C)c1C#N | 10 µM [rising, partial curve]
COc1cc2ccc(=O)oc2cc1O | 10 µM [rising, partial curve] and 12.6 µM [rising, partial curve]
COc1ccc2cnn(Cc3ccccc3)c(=O)c2c1OC | 10 µM [rising, single point]
Cc1ccc(-n2nnnc2SCC(=O)c2cc(C)n(CC3CCCO3)c2C)cc1 (centres undefined) | 5.01 µM [rising, partial curve]
